Results from the supplement of paper PMC10849652.
This is one part of the list.

Sequences of proteins named here, by UniProt entry; tags and fusion partners are left off. A change or cut given only in a name is not applied to a line headed by its entry.
UniProt Q9Y5J6: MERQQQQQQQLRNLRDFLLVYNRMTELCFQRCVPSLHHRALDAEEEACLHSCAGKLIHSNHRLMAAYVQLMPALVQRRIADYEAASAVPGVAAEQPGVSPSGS
UniProt Q9BT49: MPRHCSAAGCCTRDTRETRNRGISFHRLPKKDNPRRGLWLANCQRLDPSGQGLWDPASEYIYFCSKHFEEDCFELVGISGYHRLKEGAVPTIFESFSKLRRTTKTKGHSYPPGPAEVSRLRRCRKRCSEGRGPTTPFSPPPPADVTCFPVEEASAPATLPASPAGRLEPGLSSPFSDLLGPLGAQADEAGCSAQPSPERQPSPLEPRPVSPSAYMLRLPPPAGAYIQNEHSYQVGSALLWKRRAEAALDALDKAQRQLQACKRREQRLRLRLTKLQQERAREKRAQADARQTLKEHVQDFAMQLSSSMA
UniProt Q9Y3Q3: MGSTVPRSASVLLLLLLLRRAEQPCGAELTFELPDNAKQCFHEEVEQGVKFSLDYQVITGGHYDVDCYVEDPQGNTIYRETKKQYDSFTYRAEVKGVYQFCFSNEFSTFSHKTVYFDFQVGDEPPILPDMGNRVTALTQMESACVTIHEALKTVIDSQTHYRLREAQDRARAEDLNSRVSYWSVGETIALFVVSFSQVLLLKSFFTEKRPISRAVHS
UniProt O75204: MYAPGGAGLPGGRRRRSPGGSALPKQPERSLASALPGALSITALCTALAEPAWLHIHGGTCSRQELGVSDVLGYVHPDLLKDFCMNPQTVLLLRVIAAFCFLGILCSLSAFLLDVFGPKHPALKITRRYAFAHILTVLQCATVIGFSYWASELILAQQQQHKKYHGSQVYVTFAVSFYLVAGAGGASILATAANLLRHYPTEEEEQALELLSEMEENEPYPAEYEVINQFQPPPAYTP
UniProt Q6P9G4: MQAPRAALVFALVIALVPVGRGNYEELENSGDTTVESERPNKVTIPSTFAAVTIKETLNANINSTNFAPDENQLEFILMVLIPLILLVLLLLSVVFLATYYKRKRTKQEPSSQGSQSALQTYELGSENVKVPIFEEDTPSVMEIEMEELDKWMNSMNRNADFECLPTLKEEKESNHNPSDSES
UniProt O76062: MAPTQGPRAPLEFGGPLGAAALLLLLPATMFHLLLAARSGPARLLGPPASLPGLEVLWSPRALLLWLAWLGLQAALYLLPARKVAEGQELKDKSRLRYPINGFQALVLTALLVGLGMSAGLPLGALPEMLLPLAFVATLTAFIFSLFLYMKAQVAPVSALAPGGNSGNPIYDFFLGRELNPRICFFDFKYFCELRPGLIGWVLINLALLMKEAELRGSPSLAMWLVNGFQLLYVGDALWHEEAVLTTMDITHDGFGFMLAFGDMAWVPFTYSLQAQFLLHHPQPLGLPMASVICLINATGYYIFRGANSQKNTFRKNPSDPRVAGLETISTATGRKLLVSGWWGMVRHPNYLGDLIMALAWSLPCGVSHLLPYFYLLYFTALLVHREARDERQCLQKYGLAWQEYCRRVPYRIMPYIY
UniProt P51854: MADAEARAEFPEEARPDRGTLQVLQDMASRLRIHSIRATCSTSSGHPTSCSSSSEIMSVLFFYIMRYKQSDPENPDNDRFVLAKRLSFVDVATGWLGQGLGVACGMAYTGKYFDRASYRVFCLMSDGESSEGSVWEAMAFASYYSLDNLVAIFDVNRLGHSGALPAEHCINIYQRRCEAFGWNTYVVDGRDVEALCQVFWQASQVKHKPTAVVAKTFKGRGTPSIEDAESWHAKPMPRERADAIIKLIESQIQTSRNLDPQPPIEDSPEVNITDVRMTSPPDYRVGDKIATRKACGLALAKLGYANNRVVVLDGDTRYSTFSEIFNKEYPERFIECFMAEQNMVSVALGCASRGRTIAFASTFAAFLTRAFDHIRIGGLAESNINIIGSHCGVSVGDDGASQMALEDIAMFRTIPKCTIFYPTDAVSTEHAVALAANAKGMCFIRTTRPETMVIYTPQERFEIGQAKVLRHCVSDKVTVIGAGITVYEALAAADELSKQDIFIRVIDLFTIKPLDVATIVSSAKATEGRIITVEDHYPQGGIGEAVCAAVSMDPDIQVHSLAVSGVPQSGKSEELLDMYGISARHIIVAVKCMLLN
UniProt Q9BRN9: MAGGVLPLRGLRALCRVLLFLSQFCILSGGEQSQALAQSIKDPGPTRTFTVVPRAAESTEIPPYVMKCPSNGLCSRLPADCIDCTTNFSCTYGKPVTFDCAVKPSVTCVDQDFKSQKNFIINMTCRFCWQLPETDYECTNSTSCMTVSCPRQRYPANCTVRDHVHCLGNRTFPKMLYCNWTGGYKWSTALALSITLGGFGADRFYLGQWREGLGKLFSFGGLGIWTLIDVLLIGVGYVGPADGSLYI
UniProt Q9BSA9: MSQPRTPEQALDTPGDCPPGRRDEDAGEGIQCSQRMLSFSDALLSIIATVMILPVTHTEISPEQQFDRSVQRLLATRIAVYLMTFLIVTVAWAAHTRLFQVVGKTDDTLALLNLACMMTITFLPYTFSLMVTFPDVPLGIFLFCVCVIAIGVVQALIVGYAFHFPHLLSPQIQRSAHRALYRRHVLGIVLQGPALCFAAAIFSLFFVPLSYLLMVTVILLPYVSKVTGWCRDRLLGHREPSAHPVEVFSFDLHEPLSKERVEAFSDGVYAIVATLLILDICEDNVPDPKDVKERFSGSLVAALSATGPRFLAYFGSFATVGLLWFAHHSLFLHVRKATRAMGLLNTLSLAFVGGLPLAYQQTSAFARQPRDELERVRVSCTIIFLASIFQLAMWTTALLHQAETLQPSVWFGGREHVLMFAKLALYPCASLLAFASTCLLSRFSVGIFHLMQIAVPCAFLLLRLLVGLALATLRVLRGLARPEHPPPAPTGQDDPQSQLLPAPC
UniProt Q24JP5: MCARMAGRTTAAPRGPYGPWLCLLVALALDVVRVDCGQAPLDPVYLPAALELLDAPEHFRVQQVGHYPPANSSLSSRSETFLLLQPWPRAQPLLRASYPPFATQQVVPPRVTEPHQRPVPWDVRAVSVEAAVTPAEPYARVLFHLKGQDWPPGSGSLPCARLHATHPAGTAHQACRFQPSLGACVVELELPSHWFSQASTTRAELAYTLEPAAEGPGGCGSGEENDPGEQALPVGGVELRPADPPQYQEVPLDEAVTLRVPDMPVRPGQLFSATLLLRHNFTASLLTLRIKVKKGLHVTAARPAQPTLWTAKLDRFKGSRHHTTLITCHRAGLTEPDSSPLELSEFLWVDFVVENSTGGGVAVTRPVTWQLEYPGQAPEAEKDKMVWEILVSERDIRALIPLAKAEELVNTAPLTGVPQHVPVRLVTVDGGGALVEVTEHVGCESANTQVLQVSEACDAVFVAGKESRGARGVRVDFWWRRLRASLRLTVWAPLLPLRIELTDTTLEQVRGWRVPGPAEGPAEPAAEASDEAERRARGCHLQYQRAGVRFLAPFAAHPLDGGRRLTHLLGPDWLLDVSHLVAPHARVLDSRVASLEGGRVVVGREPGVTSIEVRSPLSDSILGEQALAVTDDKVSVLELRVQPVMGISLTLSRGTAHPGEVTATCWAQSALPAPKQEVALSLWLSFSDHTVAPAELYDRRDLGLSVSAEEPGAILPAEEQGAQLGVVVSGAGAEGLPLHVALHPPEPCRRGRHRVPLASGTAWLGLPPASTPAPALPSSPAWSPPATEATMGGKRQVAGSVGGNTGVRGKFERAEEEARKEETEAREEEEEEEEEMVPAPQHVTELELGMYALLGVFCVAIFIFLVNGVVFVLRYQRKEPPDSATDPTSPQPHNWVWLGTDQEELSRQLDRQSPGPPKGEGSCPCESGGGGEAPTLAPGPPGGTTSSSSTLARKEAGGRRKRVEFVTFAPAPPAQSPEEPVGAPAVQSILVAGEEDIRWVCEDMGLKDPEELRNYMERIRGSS
UniProt Q9H1K6: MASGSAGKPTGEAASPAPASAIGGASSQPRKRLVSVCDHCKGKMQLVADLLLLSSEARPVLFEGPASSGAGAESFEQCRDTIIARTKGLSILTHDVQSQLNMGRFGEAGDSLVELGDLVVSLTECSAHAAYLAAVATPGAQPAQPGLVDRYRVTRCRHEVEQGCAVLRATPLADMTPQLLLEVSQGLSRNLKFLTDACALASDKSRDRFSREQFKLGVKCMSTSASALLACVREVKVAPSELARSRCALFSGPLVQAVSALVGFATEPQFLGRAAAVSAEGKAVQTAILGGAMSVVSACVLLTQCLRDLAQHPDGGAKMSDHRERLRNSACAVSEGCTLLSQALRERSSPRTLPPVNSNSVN
UniProt Q9NQ88: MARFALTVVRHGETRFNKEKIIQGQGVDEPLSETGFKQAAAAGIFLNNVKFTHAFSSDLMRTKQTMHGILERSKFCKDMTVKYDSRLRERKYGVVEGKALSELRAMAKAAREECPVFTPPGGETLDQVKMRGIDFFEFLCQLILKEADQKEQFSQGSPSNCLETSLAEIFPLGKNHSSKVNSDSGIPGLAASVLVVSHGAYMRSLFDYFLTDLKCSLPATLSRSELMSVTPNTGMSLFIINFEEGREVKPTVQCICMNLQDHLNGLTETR
UniProt Q9NPI0: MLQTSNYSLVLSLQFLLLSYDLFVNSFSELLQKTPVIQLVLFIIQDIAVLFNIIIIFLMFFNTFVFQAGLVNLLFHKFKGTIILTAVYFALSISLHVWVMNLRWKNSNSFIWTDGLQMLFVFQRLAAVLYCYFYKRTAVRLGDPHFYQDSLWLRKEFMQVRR
UniProt Q15583: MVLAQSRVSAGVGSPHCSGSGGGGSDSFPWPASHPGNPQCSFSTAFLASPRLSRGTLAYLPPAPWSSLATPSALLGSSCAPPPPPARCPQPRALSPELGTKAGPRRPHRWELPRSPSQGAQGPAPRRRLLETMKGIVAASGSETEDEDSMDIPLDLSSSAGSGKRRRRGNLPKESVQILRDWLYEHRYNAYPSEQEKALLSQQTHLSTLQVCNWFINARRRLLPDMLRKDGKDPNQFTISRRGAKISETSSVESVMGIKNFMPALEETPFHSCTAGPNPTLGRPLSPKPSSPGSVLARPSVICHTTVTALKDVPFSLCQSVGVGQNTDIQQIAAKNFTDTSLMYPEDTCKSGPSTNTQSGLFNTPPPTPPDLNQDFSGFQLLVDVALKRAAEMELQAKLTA
UniProt P37173, whole entry, looked up: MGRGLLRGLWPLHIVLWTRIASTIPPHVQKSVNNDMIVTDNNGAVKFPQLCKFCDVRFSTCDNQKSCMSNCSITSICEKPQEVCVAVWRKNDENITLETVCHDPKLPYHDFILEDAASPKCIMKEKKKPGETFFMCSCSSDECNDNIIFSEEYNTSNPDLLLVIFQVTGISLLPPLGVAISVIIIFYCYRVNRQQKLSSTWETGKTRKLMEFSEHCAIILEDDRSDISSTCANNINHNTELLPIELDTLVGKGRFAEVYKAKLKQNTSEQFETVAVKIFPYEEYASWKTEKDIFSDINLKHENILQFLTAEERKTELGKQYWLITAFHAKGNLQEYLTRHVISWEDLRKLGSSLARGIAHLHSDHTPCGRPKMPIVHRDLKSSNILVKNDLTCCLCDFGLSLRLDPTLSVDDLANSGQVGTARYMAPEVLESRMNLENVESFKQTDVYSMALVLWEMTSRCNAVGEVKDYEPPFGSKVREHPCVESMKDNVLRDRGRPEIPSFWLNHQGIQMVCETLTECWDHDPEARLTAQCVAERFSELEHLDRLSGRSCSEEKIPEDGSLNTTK
UniProt Q8WTV1: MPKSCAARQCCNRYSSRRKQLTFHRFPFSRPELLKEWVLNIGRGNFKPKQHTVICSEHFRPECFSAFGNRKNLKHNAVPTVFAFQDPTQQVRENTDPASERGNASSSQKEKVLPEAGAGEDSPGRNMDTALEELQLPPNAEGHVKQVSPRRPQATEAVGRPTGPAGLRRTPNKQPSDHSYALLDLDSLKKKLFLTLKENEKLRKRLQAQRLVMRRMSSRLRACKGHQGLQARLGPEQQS
UniProt Q8NE00: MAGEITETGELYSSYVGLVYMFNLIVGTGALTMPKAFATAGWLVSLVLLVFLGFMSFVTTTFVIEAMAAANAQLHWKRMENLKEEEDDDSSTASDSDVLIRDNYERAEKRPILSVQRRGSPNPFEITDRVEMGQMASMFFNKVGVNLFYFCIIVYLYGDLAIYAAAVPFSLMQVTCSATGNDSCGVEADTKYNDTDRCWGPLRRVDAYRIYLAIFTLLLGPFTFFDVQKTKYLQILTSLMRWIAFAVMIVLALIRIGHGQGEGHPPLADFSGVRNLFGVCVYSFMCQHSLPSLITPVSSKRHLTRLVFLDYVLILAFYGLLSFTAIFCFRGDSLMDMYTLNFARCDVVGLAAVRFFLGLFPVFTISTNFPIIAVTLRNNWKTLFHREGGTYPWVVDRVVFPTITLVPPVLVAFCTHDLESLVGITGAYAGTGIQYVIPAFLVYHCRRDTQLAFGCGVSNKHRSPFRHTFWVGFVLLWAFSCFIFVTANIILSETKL
UniProt Q9H6X4: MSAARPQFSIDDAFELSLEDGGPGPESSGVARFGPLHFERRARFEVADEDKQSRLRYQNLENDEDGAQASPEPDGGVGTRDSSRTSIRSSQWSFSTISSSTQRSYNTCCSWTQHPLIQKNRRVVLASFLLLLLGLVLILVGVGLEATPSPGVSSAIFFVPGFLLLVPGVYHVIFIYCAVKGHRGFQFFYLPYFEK

What was measured:
Assay in all cases: log2 fold change, soluble protein after heating vs DMSO (PISA); higher = thermal stabilisation; K562 lysate, 10 uM; active = over 0.2 and 3.5 SD of the protein, either way, in both replicates (recomputed)
quisinostat = compound: Cn1cc(CNCC2CCN(c3ncc(C(=O)NO)cn3)CC2)c2ccccc21 [quisinostat]
Method in brief: (§1)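 Quantification was by TMTpro 16plex LC-MS/MS with equalised channel sums, applied to the supernatant after 21,000xg for 90 min. Samples were crude K562 extract at 1 mg/mL protein in PBS pH 7.4 with 1 mM MgCl2, treated with 10 μM compound for 30 min, heated for 3 min across 48°C-58°C, pooled and brought to 0.5% NP-40 at 4°C. Values are log-two fold changes in thermal stability relative to solvent controls, from duplicates.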

[1] = compound: NC(=O)Nc1cc(-c2cccc(F)c2)sc1C(=O)N[C@H]1CCCNC1
Method in brief: as §1

[2] = compound: NC(=O)c1cnc(N[C@@H]2CCCC[C@@H]2N)nc1Nc1cccc(-n2nccn2)c1
Method in brief: as §1

[3] = compound: NC1(c2ccc(-c3nc4ccn5c(=O)[nH]nc5c4cc3-c3ccccc3)cc2)CCC1
Method in brief: as §1

dasatinib = compound: Cc1nc(Nc2ncc(C(=O)Nc3c(C)cccc3Cl)s2)cc(N2CCN(CCO)CC2)n1 [dasatinib]
Method in brief: as §1

[4] = compound: Cn1cc(-c2ccc3c(c2)CCN3C(=O)Cc2cccc(C(F)(F)F)c2)c2c(N)ncnc21
Method in brief: as §1

nilotinib = compound: Cc1cn(-c2cc(NC(=O)c3ccc(C)c(Nc4nccc(-c5cccnc5)n4)c3)cc(C(F)(F)F)c2)cn1 [nilotinib]
Method in brief: as §1

[5] = compound: Cc1nc(Nc2n[nH]c3c2CN(C(=O)N[C@H](CN(C)C)c2ccccc2)C3(C)C)c2sccc2n1
Method in brief: as §1

[6] = compound: Cc1ncc(-c2ccnc(Nc3ccc(S(C)(=O)=O)cc3)n2)n1C(C)C
Method in brief: as §1

tipifarnib = compound: Cn1cncc1[C@@](N)(c1ccc(Cl)cc1)c1ccc2c(c1)c(-c1cccc(Cl)c1)cc(=O)n2C [tipifarnib]
Method in brief: as §1

Measured: log2 fold change

TMEM177 (UniProt Q53S58)
inactive: quisinostat -0.018 | [1] 0.036 | [2] 0.029 | [3] 0.067

TIMM10B (UniProt Q9Y5J6)
inactive: dasatinib 0.073 | [4] -0.089 | quisinostat -0.039 | [1] 0.009 | [3] -0.016

THAP7 (UniProt Q9BT49)
inactive: nilotinib 0.035 | [5] 0.037 | [6] 0.052 | tipifarnib -0.005

TM6SF1 (UniProt Q9BZW5)
inactive: dasatinib 0.036 | [4] -0.052 | quisinostat 0 | [1] 0.124 | [2] 0.036 | [3] 0.029

TGM2 (UniProt A2A299)
inactive: nilotinib -0.055 | [5] -0.026 | [6] -0.052 | tipifarnib -0.038 | [2] 0.104

TMEM181 (UniProt Q9P2C4)
inactive: dasatinib 0.075 | [4] 0.08 | quisinostat -0.025 | [1] -0.008 | [2] 0.02 | [3] -0.048

Quoted from the listing (2 entries):
TIMM10B (UniProt Q9Y5J6)
inactive: dasatinib 0.073 | [4] -0.089 | quisinostat -0.039 | [1] 0.009 | [3] -0.016

THAP7 (UniProt Q9BT49)
inactive: nilotinib 0.035 | [5] 0.037 | [6] 0.052 | tipifarnib -0.005

(further entries)

TMED3 (UniProt Q9Y3Q3)
inactive: quisinostat 0.031 | [1] 0.021 | [2] -0.12 | [3] -0.044

TMEM106C (UniProt Q9BVX2)
inactive: [3] -0.224

TMEM129
inactive: [3] 0.167

TM7SF3 (UniProt Q9NS93)
inactive: dasatinib -0.066 | [4] 0.065 | quisinostat 0.015 | [1] -0.065 | [3] -0.007

TMEM120B (UniProt A0PK00)
inactive: dasatinib -0.173 | [4] 0.037 | quisinostat 0.067 | [1] 0.038 | [2] -0.056 | [3] 0.108

TMEM127 (UniProt O75204)
inactive: dasatinib 0.137 | [4] 0.065 | [3] 0.119

TMEM154 (UniProt Q6P9G4)
inactive: dasatinib 0.058 | [4] 0.07 | quisinostat 0.103 | [1] -0.101

THAP9 (UniProt Q9H5L6)
inactive: dasatinib 0.025 | [4] -0.032 | quisinostat -0.455 | [1] 0.07 | [2] 0.179

TM7SF2 (UniProt O76062)
inactive: quisinostat -0.001 | [1] 0.12

TKTL1 (UniProt P51854)
inactive: dasatinib -0.139 | [4] -0.021

TM2D3 (UniProt Q9BRN9)
inactive: [3] -0.09

TMEM175 (UniProt Q9BSA9)
inactive: quisinostat -0.313 | [1] 0.102 | [3] -0.136

TICRR (UniProt Q7Z2Z1)
inactive: dasatinib 0.165 | [4] 0.152

TGFBR1 isoform 2 (UniProt P36897)
inactive: [4] -0.03 | [3] -0.117

TMEM132A isoform 2 (UniProt Q24JP5)
inactive: quisinostat -0.022 | [1] 0.087 | [2] 0.724 | [3] -0.014

TLNRD1 (UniProt Q9H1K6)
inactive: dasatinib -0.03 | [4] 0.046 | quisinostat -0.152 | [1] 0.132 | [2] -0.015

TMCC1 (UniProt O94876)
inactive: dasatinib 0.058 | [4] -0.104

TIGAR (UniProt Q9NQ88)
inactive: dasatinib 0.317 | [4] 0.058 | quisinostat -0.362 | [1] 0.129 | [3] 0.059

TMEM138 (UniProt Q9NPI0)
inactive: dasatinib 0.068 | [4] 0.023 | [3] 0

TGIF1 (UniProt Q15583)
inactive: quisinostat -0.02 | [1] 0.095 | [3] 0.013

THBS1 (UniProt P07996)
inactive: dasatinib -0.008 | [4] 0.238 | quisinostat -0.133 | [1] -0.001

TLE3 (UniProt H0YL70)
inactive: dasatinib 0.077 | [4] 0.05

TGFBR2 isoform 2 (UniProt P37173)
inactive: dasatinib 0.123 | [4] -0.385 | [3] 0.04

TMCO3 (UniProt Q6UWJ1)
inactive: quisinostat 0.083 | [1] -0.037

THAP3 (UniProt Q8WTV1)
inactive: nilotinib 0.021 | [5] 0.08 | [6] -0.023 | quisinostat -0.144 | tipifarnib -0.088 | [1] -0.125 | [3] 0.028

TMEM104 (UniProt Q8NE00)
inactive: quisinostat -0.007 | [1] -0.048

TMEM134 (UniProt Q9H6X4)
inactive: dasatinib 0.083 | [4] -0.096 | quisinostat 0.018 | [1] -0.075 | [2] 0.052 | [3] -0.17

THOC2 (UniProt H0Y7U4)
inactive: dasatinib 0.028 | [4] 0.089 | quisinostat 0.023 | [1] 0.011 | [2] 0.054

THAP5 (UniProt Q7Z6K1)
inactive: dasatinib -0.03 | [4] -0.012
